Article PMC5509740
These are yes or no findings as the source states them, for the method shown. In cells and extracts the contact can be indirect. A yes stands for co-enrichment or nearness to the bait. Other partners may have been found.

Amino acid sequences for entries named in this document (tags omitted). Residues count along the entry.
UniProt Q3UHD9: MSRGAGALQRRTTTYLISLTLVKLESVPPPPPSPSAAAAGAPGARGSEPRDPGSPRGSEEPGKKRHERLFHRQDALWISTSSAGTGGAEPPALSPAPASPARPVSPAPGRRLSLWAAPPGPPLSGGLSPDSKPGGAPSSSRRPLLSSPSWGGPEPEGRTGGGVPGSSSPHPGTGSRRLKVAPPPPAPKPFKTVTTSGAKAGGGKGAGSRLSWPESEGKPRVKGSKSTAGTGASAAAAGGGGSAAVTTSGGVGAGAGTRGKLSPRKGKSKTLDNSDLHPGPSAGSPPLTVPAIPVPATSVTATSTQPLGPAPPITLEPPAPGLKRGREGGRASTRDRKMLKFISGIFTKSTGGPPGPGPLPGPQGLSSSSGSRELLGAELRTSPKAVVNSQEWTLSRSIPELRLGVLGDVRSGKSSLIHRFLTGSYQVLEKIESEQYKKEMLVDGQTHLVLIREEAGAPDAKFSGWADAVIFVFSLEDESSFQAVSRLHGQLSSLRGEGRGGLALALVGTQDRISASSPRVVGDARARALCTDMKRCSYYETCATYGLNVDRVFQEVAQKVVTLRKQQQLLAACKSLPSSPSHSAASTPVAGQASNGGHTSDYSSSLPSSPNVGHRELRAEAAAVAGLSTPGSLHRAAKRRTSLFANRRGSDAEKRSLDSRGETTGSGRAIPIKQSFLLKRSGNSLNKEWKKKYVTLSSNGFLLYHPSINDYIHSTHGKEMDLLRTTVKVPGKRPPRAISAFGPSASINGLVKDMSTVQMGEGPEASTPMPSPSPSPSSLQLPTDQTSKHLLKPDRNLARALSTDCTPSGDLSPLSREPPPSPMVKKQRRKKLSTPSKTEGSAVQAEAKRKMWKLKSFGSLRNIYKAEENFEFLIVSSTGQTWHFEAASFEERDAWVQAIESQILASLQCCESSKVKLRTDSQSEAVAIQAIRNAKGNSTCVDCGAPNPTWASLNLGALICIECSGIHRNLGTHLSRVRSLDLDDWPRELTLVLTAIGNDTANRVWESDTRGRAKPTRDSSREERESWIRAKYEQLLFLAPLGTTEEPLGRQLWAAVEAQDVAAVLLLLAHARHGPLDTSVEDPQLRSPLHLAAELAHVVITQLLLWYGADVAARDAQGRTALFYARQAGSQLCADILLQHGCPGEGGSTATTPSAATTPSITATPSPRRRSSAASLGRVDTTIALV
UniProt Q8BWW9: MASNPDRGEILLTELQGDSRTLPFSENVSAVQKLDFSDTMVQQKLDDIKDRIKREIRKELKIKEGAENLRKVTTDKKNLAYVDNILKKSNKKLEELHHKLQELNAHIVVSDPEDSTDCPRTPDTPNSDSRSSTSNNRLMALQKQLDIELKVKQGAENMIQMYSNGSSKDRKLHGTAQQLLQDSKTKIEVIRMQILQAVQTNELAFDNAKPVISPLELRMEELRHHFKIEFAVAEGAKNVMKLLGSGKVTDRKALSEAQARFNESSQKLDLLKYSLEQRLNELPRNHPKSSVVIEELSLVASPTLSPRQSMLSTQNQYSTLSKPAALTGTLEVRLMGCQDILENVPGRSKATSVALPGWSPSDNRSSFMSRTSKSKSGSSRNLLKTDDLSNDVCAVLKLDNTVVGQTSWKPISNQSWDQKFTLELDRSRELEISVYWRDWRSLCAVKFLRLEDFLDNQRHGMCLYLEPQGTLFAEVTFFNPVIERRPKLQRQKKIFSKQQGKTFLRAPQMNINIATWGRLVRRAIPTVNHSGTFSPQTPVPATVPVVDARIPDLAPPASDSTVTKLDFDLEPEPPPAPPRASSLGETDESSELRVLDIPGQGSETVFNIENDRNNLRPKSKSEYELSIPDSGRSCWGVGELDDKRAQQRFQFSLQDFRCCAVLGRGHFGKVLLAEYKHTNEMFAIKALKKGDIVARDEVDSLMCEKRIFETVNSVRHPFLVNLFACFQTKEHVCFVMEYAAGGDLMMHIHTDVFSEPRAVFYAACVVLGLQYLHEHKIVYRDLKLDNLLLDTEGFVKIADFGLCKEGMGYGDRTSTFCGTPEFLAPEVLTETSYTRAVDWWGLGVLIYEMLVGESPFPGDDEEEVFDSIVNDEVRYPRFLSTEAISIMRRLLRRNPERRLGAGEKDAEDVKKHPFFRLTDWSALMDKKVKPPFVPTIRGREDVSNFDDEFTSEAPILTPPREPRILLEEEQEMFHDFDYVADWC
UniProt Q5SQX6: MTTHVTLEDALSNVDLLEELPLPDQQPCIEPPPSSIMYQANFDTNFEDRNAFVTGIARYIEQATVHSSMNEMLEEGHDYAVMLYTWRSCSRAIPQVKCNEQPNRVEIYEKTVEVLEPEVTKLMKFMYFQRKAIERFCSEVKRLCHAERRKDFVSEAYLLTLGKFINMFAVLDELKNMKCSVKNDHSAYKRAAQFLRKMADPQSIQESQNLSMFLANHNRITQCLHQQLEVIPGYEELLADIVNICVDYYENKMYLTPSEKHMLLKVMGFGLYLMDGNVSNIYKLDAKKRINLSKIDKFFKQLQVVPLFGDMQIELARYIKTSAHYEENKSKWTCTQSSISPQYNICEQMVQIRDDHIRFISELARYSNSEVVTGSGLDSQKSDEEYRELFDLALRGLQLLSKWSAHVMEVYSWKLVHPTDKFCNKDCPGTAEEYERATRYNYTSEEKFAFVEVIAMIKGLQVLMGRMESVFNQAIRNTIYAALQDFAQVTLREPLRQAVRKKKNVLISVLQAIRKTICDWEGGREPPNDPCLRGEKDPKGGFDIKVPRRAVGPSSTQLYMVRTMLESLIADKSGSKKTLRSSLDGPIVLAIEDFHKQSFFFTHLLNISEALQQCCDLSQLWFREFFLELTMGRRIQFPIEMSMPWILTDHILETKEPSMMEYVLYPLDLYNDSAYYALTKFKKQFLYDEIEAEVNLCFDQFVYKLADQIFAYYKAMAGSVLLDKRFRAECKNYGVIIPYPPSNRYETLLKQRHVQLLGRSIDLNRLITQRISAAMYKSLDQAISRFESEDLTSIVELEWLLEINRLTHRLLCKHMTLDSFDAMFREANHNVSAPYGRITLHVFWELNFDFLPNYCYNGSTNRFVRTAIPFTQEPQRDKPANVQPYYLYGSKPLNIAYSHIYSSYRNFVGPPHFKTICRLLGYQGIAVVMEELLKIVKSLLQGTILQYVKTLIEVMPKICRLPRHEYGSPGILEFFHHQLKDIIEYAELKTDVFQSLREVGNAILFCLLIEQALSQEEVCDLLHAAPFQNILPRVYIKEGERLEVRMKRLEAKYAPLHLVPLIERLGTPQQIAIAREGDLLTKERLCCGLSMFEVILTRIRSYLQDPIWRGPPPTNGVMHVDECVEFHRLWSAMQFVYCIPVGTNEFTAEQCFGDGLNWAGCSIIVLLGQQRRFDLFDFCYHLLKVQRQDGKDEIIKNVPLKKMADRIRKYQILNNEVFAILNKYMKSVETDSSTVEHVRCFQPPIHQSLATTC
UniProt Q14BI2, residues 19-872: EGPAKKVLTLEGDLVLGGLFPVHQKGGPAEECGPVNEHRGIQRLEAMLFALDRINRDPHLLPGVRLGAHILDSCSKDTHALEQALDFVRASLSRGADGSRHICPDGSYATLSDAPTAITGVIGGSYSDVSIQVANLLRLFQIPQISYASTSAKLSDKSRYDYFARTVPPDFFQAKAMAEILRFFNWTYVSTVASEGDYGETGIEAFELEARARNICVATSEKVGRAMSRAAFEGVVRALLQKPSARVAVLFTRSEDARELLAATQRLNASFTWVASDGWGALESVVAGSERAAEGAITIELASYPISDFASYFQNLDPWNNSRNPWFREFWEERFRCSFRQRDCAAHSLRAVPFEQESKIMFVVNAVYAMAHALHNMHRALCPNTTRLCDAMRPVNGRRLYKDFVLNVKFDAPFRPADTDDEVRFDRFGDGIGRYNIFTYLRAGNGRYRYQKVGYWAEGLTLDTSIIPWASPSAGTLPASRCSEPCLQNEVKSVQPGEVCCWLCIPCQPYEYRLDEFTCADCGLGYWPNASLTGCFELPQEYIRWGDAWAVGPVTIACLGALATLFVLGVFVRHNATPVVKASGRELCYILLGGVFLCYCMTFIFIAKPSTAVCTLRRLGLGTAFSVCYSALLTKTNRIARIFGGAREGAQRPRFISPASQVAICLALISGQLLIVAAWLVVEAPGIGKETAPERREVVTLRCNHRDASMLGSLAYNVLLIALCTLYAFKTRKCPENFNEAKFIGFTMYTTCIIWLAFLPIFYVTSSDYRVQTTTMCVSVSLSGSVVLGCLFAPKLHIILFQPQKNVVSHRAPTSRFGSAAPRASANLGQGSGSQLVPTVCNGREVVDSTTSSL
UniProt Q9QYS2, residues 23-879: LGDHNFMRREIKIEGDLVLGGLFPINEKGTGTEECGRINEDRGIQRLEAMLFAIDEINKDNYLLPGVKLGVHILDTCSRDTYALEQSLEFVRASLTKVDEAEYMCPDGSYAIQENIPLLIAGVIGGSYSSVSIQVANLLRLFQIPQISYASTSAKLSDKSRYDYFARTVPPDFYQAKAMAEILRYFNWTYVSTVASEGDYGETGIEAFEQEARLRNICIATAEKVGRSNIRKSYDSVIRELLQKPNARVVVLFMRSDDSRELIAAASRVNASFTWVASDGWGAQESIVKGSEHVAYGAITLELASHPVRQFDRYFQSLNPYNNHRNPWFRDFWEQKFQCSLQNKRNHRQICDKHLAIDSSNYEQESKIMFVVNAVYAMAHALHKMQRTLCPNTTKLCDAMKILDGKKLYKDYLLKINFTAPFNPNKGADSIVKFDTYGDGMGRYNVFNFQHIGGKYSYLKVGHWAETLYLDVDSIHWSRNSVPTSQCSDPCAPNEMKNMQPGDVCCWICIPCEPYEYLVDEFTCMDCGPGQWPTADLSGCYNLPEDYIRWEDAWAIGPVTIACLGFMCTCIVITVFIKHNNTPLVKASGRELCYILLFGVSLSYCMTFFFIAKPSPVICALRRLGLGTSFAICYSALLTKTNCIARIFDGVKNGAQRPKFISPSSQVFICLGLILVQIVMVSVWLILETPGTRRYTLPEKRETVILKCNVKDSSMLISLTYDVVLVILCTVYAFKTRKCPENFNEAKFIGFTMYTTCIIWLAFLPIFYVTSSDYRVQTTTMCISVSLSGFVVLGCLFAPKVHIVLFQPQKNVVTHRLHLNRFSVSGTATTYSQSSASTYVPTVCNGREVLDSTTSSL

What was measured:
[1] = biological target: Kalirin (mouse (endogenous in adult mouse cortex)) (UniProt A2CG49); assay: affinity purification with mass spectrometry; immunoprecipitation of the endogenous bait (Agap2, Syngap1 or Kalirin) with its antibody and protein G Dynabeads from the PSD (DOC-soluble) fraction of adult mouse cortex, 2 mg protein, 4 degrees Celsius overnight; washes 25 mM Tris pH 7.4, 150 mM NaCl, 1 mM EDTA, 1% sodium deoxycholate; HPLC-MS/MS; positive if at least two peptides in at least two assays and absent in anti-GST controls
[2] = biological target: Syngap1 (mouse (endogenous in adult mouse cortex)) (UniProt F6SEU4); assay: as above
[3] = biological target: Agap2 (mouse (endogenous in adult mouse cortex)) (UniProt Q3UHD9); assay: as above
[4] = biological target: Agap2 (mouse (endogenous in adult mouse cortex)) (UniProt Q3UHD9); assay: affinity purification with mass spectrometry; immunoprecipitation of endogenous Agap2 with its antibody and protein G Dynabeads from the non-PSD (Triton-soluble) fraction of adult mouse cortex, 2 mg protein, 4 degrees Celsius overnight; washes 25 mM Tris pH 7.4, 150 mM NaCl, 1 mM EDTA, 1% Triton X-100; HPLC-MS/MS; positive if at least two peptides in at least two assays and absent in anti-GST controls

binding [1] | binding [2] | binding [3] | binding [4] | Substance
binds |  |  |  | Camk2b (from UniProt P28652 1-542) (enzyme)
 | binds | binds |  | Grm5 (from UniProt Q3UVX5 19-1203) (receptor)
 |  |  | binds | Pkn2 (from UniProt Q8BWW9 1-983) (enzyme)
 |  | binds |  | Iqgap1 (from UniProt Q9JKF1 1-1657)
 | binds | binds | binds | Cyfip2 (from UniProt Q5SQX6 1-1253)
 |  | binds | binds | Grm1 (from UniProt P97772 21-1199) (receptor)
 |  | binds | binds | Grm2 (from UniProt Q14BI2 19-872) (receptor)
 |  | binds |  | Cyfip1 (from UniProt Q7TMB8 1-1253)
binds |  |  |  | Camk2a (from UniProt P11798 1-478) (enzyme)
 |  | binds |  | Grm3 (from UniProt Q9QYS2 23-879) (receptor)
 |  | binds |  | Syngap1 (from UniProt F6SEU4 1-1340)
